{"source": "paper doi:10.1101/679936", "binders": {"B1": {"name": "Vc-Sac1 (protein, UniProt Q9NTJ5 1-587)", "chain": "MATAAYEQLKLHITPEKFYVEACDDGADDVLTIDRVSTEVTLAVKKDVPPSAVTRPIFGILGTIHLVAGNYLIVITKKIKVGEFFSHVVWKATDFDVLSYKKTMLHLTDIQLQDNKTFLAMLNHVLNVDGFYFSTTYDLTHTLQRLSNTSPEFQEMSLLERADQRFVWNGHLLRELSAQPEVHRFALPVLHGFITMHSCSINGKYFDWILISRRSCFRAGVRYYVRGIDSEGHAANFVETEQIVHYNGSKASFVQTRGSIPVFWSQRPNLKYKPLPQISKVANHMDGFQRHFDSQVIIYGKQVIINLINQKGSEKPLEQTFATMVSSLGSGMMRYIAFDFHKECKNMRWDRLSILLDQVAEMQDELSYFLVDSAGQVVANQEGVFRSNCMDCLDRTNVIQSLLARRSLQAQLQRLGVLHVGQKLEEQDEFEKIYKNAWADNANACAKQYAGTGALKTDFTRTGKRTHLGLIMDGWNSMIRYYKNNFSDGFRQDSIDLFLGNYSVDELESHSPLSVPRDWKFLALPIIMVVAFSMCIICLLMAGDTWTETLAYVLFWGVASIGTFFIILYNGKDFVDAPRLVQKEKID"}}, "biological_target": "T1, Vn-SCAP (hamster) (UniProt P97260)", "T1 sequence": "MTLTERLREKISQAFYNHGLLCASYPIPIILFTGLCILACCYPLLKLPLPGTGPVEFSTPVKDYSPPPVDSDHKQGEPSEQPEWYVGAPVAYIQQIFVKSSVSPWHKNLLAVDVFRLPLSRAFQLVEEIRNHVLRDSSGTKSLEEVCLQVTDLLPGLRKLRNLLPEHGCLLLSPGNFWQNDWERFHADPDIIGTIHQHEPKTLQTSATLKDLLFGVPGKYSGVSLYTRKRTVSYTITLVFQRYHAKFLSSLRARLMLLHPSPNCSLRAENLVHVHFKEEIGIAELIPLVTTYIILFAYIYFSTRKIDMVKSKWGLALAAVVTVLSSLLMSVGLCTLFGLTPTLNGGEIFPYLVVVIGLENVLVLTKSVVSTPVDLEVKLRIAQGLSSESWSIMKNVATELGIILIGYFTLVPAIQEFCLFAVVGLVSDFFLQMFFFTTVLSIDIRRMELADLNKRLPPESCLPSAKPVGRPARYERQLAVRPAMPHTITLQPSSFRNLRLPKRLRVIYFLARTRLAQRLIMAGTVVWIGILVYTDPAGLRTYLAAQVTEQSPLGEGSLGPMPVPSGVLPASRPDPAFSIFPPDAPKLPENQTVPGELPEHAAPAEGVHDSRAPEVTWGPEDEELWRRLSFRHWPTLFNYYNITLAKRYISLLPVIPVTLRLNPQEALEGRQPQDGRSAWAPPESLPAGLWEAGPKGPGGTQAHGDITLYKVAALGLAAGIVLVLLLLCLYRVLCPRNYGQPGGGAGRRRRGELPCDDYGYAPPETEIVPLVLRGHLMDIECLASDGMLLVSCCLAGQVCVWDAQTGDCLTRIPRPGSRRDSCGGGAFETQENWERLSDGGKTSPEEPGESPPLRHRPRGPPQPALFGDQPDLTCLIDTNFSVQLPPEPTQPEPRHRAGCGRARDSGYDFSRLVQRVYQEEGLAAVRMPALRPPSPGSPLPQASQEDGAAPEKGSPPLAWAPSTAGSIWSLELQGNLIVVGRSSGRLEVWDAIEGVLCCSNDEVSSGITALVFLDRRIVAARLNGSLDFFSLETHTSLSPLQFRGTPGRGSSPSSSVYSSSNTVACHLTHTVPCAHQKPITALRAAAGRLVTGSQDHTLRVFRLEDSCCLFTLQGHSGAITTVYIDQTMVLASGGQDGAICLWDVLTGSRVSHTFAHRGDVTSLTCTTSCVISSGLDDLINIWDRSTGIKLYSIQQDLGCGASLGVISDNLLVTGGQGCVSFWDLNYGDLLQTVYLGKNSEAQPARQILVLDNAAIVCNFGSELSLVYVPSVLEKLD", "assay": "split reporter", "note": "These are yes or no findings as the source states them, for the method shown. Binding seen in cells or lysates may run through a third protein. Some results given as binding are weak or reduced against the parent protein; the word gives no strength."}
{"binder": "B1", "values": [{"measurement": "binding", "result": "binds"}]}
